This is an account of results in publication PMC5386688.

Sequences of proteins named here, by UniProt entry; tags and fusion partners are left off.
UniProt P10415: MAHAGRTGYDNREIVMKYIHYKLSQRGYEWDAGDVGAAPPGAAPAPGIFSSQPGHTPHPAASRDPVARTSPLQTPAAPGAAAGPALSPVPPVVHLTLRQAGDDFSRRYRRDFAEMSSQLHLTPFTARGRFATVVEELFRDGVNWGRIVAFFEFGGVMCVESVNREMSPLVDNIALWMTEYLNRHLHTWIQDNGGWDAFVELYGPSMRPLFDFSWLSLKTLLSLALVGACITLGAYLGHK

Assay [1] addresses T1, Heterogeneous nuclear protein L (HnRNP-L), endogenous in PC3 cells (human (endogenous in PC3)) (UniProt P14866).
T1 sequence: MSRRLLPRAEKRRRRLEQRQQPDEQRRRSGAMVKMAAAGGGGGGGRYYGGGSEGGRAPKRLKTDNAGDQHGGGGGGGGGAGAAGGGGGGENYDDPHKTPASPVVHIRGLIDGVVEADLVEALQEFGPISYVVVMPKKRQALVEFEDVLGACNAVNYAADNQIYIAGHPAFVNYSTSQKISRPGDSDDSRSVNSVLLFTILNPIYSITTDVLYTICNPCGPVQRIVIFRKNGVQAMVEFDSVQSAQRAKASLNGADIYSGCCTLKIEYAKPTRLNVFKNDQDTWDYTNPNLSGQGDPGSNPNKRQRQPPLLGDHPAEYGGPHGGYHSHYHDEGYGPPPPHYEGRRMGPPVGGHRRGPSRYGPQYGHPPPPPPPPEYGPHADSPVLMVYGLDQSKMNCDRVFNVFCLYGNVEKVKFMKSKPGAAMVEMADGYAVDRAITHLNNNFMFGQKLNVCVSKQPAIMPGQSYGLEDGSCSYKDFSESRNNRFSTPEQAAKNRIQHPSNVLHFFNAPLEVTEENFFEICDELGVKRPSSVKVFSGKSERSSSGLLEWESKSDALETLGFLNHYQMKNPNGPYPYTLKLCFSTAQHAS
As to the kind of experiment: co-IP; PC3 cell lysate; anti-HnRNP L (Abcam, ab6106), anti-bcl-2 or IgG antibody at 4°C overnight, protein A/G beads; western blot; reciprocal; IgG group as negative control.

Assay [2] addresses BCL-2, endogenous in PC3 cells (human (endogenous in PC3)) (UniProt P10415). Described as above.
For assay [3], the target named is GST-tagged BCL-2 (UniProt P10415). Put plainly: pull-down; lysates of bacteria expressing His-tagged HnRNP-L or GST-tagged BCL-2; tag beads added to one lysate for 8 hours at 4°C, then equal volume of the other lysate overnight at 4°C; beads washed with ice-cold PBS four times; western blot; input and tag-purification groups as controls.

These are yes or no findings as the source states them, for the method shown. In cells and extracts the contact can be indirect. Some binding calls cover weakened binding; strength is not graded here. For part of these data: Tags and fused reporters may be left off the sequences shown.

For the molecule “BCL-2, endogenous in PC3 cells (from UniProt P10415 1-239)”, in assay [1], the binding result is listed as “binds”.

B1: Heterogeneous nuclear protein L (HnRNP-L), endogenous in PC3 cells (protein, UniProt P14866 1-589)
chain: MSRRLLPRAEKRRRRLEQRQQPDEQRRRSGAMVKMAAAGGGGGGGRYYGGGSEGGRAPKRLKTDNAGDQHGGGGGGGGGAGAAGGGGGGENYDDPHKTPASPVVHIRGLIDGVVEADLVEALQEFGPISYVVVMPKKRQALVEFEDVLGACNAVNYAADNQIYIAGHPAFVNYSTSQKISRPGDSDDSRSVNSVLLFTILNPIYSITTDVLYTICNPCGPVQRIVIFRKNGVQAMVEFDSVQSAQRAKASLNGADIYSGCCTLKIEYAKPTRLNVFKNDQDTWDYTNPNLSGQGDPGSNPNKRQRQPPLLGDHPAEYGGPHGGYHSHYHDEGYGPPPPHYEGRRMGPPVGGHRRGPSRYGPQYGHPPPPPPPPEYGPHADSPVLMVYGLDQSKMNCDRVFNVFCLYGNVEKVKFMKSKPGAAMVEMADGYAVDRAITHLNNNFMFGQKLNVCVSKQPAIMPGQSYGLEDGSCSYKDFSESRNNRFSTPEQAAKNRIQHPSNVLHFFNAPLEVTEENFFEICDELGVKRPSSVKVFSGKSERSSSGLLEWESKSDALETLGFLNHYQMKNPNGPYPYTLKLCFSTAQHAS
B1: the binding result in assay [2] is listed as “binds”.

B2: His-tagged HnRNP-L (protein, UniProt P14866 1-589)
chain: MSRRLLPRAEKRRRRLEQRQQPDEQRRRSGAMVKMAAAGGGGGGGRYYGGGSEGGRAPKRLKTDNAGDQHGGGGGGGGGAGAAGGGGGGENYDDPHKTPASPVVHIRGLIDGVVEADLVEALQEFGPISYVVVMPKKRQALVEFEDVLGACNAVNYAADNQIYIAGHPAFVNYSTSQKISRPGDSDDSRSVNSVLLFTILNPIYSITTDVLYTICNPCGPVQRIVIFRKNGVQAMVEFDSVQSAQRAKASLNGADIYSGCCTLKIEYAKPTRLNVFKNDQDTWDYTNPNLSGQGDPGSNPNKRQRQPPLLGDHPAEYGGPHGGYHSHYHDEGYGPPPPHYEGRRMGPPVGGHRRGPSRYGPQYGHPPPPPPPPEYGPHADSPVLMVYGLDQSKMNCDRVFNVFCLYGNVEKVKFMKSKPGAAMVEMADGYAVDRAITHLNNNFMFGQKLNVCVSKQPAIMPGQSYGLEDGSCSYKDFSESRNNRFSTPEQAAKNRIQHPSNVLHFFNAPLEVTEENFFEICDELGVKRPSSVKVFSGKSERSSSGLLEWESKSDALETLGFLNHYQMKNPNGPYPYTLKLCFSTAQHAS
With B2, the binding entry in assay [3] is listed as “binds”.
